Measurements published in doi:10.1101/2022.02.08.479506.
Results are given in words; binding and its absence hold for the method and conditions named. Some entries that bind do so weakly or less than the wild type.

Chains of the proteins cited; added tags and fusions are not shown. Residues count along the entry.
UniProt P09382, residues 2-135: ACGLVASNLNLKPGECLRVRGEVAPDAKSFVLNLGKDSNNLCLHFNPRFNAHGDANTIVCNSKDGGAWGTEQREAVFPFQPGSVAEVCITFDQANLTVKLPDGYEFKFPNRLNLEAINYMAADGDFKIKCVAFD

How the values were obtained:
Galectin-1 [1] = target: Galectin-1 (UniProt P09382); assay: NMR 15N relaxation
Galectin-1 [2] = target: Galectin-1 (UniProt P09382); assay: NMR titration
Galectin-1 [3] = target: Galectin-1 (UniProt P09382); assay: NMR titration; remark: listed apart in the source

Measured: binding

SRSSLRSRWGRFLLQRGSWTGPRC (peptide, UniProt P15814 59-82) [λ5 unique region peptide (residue 22-45) of the pre-B cell receptor]
binds: all assays above
